Assay results published in article PMC11169864 (Frontiers in Chemistry, 2024).
Non-standard residues stand in square brackets, D forms with d.

Tests used:
[1] = general procedure: Fmoc solid-phase peptide synthesis; Fmoc-NH-SAL-PEG resin (Rink amide); DIC-HOBt; HBTU/DIEA; DIC/HOOBt; conditions: for isolated mass / isolated yield: whole synthesis
[2] = general procedure: Fmoc solid-phase peptide synthesis; Fmoc-NH-SAL-PEG resin; DIC-HOBt; HBTU/DIEA; DIC/HOOBt; conditions: whole synthesis, scale 11 μmol resin portion cleaved
[3] = scale 6.3 μmol resin portion cleaved
[4] = scale 7.6 μmol resin portion cleaved
[5] = scale 8.8 μmol resin portion cleaved

H-Cys-Arg-Gly-Asp-D-Cys-Pro-OCH2CONH2
isolated mass [1, 3]: 1.3 mg
isolated yield [1, 3]: 29%

H-Cys-Arg-Gly-Asp-Cys-D-Pro-OCH2CONH2
isolated mass [2]: 2.6 mg
isolated yield [2]: 34%

cyclo(CRGDC[dP]) (cysteine pairing not given here)
cyclisation yield ([1]; cyclisation step, on linear precursor 2a): 59%

H-D-Cys-Arg-Gly-Asp-Cys-D-Pro-OCH2CONH2
isolated mass [1, 4]: 1.8 mg
isolated yield [1, 4]: 31%

H-D-Cys-Arg-Gly-Asp-D-Cys-Pro-OCH2CONH2
isolated mass [1, 5]: 1.8 mg
isolated yield [1, 5]: 29%
